These are yes or no findings as the source states them, for the method shown. Binding calls can cover weak binding; strength is not graded here. Tags and fused reporters may be left off the sequences shown.
Key:
[1] = molecular target: T1, HrpA middle region (HrpA-M), Gal4 DNA-binding domain fusion (Neisseria meningitidis strain MC58) (UniProt C0KXI4); assay: two-hybrid; specificity tests: AH109 co-transformed with pGBKT7-HrpAM, -HrpAM1, -HrpAM2 or -HrpAM3 and the isolated prey plasmids; growth on -WL, -HWL and -AHWL media; empty vectors as negative control
T1 sequence: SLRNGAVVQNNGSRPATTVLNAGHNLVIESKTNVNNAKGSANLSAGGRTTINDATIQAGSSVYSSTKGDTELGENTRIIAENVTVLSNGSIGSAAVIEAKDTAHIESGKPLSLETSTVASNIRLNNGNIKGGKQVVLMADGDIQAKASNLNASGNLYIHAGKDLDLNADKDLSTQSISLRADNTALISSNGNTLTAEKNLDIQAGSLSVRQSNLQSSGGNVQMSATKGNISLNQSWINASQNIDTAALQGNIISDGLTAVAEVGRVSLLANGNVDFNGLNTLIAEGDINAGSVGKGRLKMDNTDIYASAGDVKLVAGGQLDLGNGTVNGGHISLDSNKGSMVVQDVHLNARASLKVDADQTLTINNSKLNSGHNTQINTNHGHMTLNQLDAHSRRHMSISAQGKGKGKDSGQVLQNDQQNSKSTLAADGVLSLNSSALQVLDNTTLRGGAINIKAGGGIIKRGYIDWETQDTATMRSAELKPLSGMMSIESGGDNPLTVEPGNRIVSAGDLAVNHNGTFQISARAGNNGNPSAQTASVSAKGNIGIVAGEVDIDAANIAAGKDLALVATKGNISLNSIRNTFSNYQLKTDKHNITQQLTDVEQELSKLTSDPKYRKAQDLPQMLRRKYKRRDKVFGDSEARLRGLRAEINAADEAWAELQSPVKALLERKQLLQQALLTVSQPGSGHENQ

[2] = molecular target: T2, HrpA-M1 sub-region, Gal4 DNA-binding domain fusion (Neisseria meningitidis strain MC58) (UniProt C0KXI4); assay: as above
T2 sequence: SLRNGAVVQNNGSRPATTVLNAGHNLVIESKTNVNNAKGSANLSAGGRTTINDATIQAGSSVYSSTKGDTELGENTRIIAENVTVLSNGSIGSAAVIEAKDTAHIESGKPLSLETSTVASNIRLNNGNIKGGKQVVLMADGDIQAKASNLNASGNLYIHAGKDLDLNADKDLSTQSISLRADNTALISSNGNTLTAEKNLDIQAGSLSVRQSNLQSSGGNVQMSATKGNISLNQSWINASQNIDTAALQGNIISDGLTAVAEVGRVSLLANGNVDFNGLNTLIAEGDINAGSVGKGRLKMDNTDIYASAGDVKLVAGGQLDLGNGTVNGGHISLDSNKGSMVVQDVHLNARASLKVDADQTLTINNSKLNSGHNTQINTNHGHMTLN

[3] = molecular target: T3, HrpA-M2 sub-region, Gal4 DNA-binding domain fusion (Neisseria meningitidis strain MC58) (UniProt C0KXI4); assay: as above
T3 sequence: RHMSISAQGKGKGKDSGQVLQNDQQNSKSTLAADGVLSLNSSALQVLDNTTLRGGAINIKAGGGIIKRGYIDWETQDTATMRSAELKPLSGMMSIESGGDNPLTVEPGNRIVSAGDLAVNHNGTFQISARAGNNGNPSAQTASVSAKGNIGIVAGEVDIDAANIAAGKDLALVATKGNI

[4] = molecular target: T4, HrpA-M3 sub-region, Gal4 DNA-binding domain fusion (Neisseria meningitidis strain MC58) (UniProt C0KXI4); assay: as above
T4 sequence: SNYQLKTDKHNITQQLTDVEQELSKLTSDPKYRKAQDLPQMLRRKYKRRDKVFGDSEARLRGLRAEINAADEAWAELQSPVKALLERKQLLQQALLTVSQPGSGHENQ

[5] = molecular target: T1, HrpA middle region (HrpA-M), Gal4 DNA-binding domain fusion (Neisseria meningitidis strain MC58); assay: two-hybrid; library screen: bait Gal4 DNA-binding domain-HrpA-M (pGBKT7-HrpAM) against a HeLa cDNA library (pGADGH) and a human fetal liver cDNA library (pACT-2) in yeast AH109; selection on SD lacking histidine, leucine and tryptophan, then also adenine; beta-galactosidase activity

Row | Substance | binding [1] | binding [2] | binding [3] | binding [4] | binding [5]
1 | Fibrinogen alpha-chain (FGA), Gal4 activation domain fusion (human) (domain or fragment) | binds | binds | no binding | binds | binds
2 | Inter-alpha-trypsin inhibitor heavy chain 3 (ITIH3), Gal4 activation domain fusion (human) (domain or fragment) | binds | binds | binds | binds | binds

Source: paper PMC9241232
